Measured values reported in article PMC11338459, “Cryo-EM structures of the human band 3 transporter indicate a transport mechanism involving the coupled movement of chloride and bicarbonate ions” (PLOS Biology, 2024).
No constants are given. Whether binding was seen depends on the method and setting. Some results given as binding are weak or reduced against the parent protein; the word gives no strength.

Columns and labels:
[1] = biological target: human band 3 anion transporter (human) (UniProt P02730); experiment: cryo-EM structure; detergent-solubilized raw ghost membrane of human RBC reconstituted into MSP1E3D1 nanodiscs (POPC:POPE:POPG), Superose 6 in 20 mM HEPES-NaOH pH 7.5, 100 mM NaHCO3; Build and Retrieve processing; IF-IF, OF-IF and OF-OF dimers
[2] = biological target: human band 3 anion transporter (human) (UniProt P02730); experiment: cryo-EM structure; detergent-solubilized raw ghost membrane of human RBC reconstituted into MSP1E3D1 nanodiscs (POPC:POPE:POPG), enriched on Superose 6 in 20 mM Tris-HCl pH 7.5, 100 mM NaCl; Build and Retrieve processing; OF-IF and IF-IF dimers

binding [1]: binds | binding [2]: binds
B1: human band 3 anion transporter (natural protein, UniProt P02730 1-911, looked up)
chain: MEELQDDYEDMMEENLEQEEYEDPDIPESQMEEPAAHDTEATATDYHTTSHPGTHKVYVELQELVMDEKNQELRWMEAARWVQLEENLGENGAWGRPHLSHLTFWSLLELRRVFTKGTVLLDLQETSLAGVANQLLDRFIFEDQIRPQDREELLRALLLKHSHAGELEALGGVKPAVLTRSGDPSQPLLPQHSSLETQLFCEQGDGGTEGHSPSGILEKIPPDSEATLVLVGRADFLEQPVLGFVRLQEAAELEAVELPVPIRFLFVLLGPEAPHIDYTQLGRAAATLMSERVFRIDAYMAQSRGELLHSLEGFLDCSLVLPPTDAPSEQALLSLVPVQRELLRRRYQSSPAKPDSSFYKGLDLNGGPDDPLQQTGQLFGGLVRDIRRRYPYYLSDITDAFSPQVLAAVIFIYFAALSPAITFGGLLGEKTRNQMGVSELLISTAVQGILFALLGAQPLLVVGFSGPLLVFEEAFFSFCETNGLEYIVGRVWIGFWLILLVVLVVAFEGSFLVRFISRYTQEIFSFLISLIFIYETFSKLIKIFQDHPLQKTYNYNVLMVPKPQGPLPNTALLSLVLMAGTFFFAMMLRKFKNSSYFPGKLRRVIGDFGVPISILIMVLVDFFIQDTYTQKLSVPDGFKVSNSSARGWVIHPLGLRSEFPIWMMFASALPALLVFILIFLESQITTLIVSKPERKMVKGSGFHLDLLLVVGMGGVAALFGMPWLSATTVRSVTHANALTVMGKASTPGAAAQIQEVKEQRISGLLVAVLVGLSILMEPILSRIPLAVLFGIFLYMGVTSLSGIQLFDRILLLFKPPKYHPDVPYVKRVKTWRMHLFTGIQIICLAVLWVVKSTPASLALPFVLILTVPLRRVLLPLIFRNVELQCLDADDAKATFDEEEGRDEYDEVAMPV
modifications: N-linked N-acetylglucosamine (NAG) at N642
notes: band 3 anion transporter (AE1), human erythrocyte form of 911 amino acids, encoded by SLC4A1; endogenous protein from ghost membranes; the model of each subunit holds residues 372-888 except 743-751; Native protein from a crude membrane extract, identified from the cryo-EM maps (Build and Retrieve, Model Angelo); PC and PIP2 lipids lie at the subunit interface; also called band 3 transporter; …
